Data on one molecule can be found in article PMC8070143.

No constants are given. Whether binding was seen depends on the method and setting. Binding seen in cells or lysates may run through a third protein. Some binding calls cover weakened binding; strength is not graded here.

In the experiment the target is voltage-dependent anion channel 1 (VDAC1) (human (endogenous in A2780)), P21796. Description: co-IP; A2780 cells transfected with wt-p62 or ΔUBA-p62, cisplatin 5 μg/mL 6 h; NP40 lysis buffer; co-IP of HK2 with VDAC1, the precipitating antibody is not told for this panel. To be noted: remark: other sources report otherwise.

B1: hexokinase 2 (HK2), P52789 1-917 (enzyme)
chain: MIASHLLAYFFTELNHDQVQKVDQYLYHMRLSDETLLEISKRFRKEMEKGLGATTHPTAAVKMLPTFVRSTPDGTEHGEFLALDLGGTNFRVLWVKVTDNGLQKVEMENQIYAIPEDIMRGSGTQLFDHIAECLANFMDKLQIKDKKLPLGFTFSFPCHQTKLDESFLVSWTKGFKSSGVEGRDVVALIRKAIQRRGDFDIDIVAVVNDTVGTMMTCGYDDHNCEIGLIVGTGSNACYMEEMRHIDMVEGDEGRMCINMEWGAFGDDGSLNDIRTEFDQEIDMGSLNPGKQLFEKMISGMYMGELVRLILVKMAKEELLFGGKLSPELLNTGRFETKDISDIEGEKDGIRKAREVLMRLGLDPTQEDCVATHRICQIVSTRSASLCAATLAAVLQRIKENKGEERLRSTIGVDGSVYKKHPHFAKRLHKTVRRLVPGCDVRFLRSEDGSGKGAAMVTAVAYRLADQHRARQKTLEHLQLSHDQLLEVKRRMKVEMERGLSKETHASAPVKMLPTYVCATPDGTEKGDFLALDLGGTNFRVLLVRVRNGKWGGVEMHNKIYAIPQEVMHGTGDELFDHIVQCIADFLEYMGMKGVSLPLGFTFSFPCQQNSLDESILLKWTKGFKASGCEGEDVVTLLKEAIHRREEFDLDVVAVVNDTVGTMMTCGFEDPHCEVGLIVGTGSNACYMEEMRNVELVEGEEGRMCVNMEWGAFGDNGCLDDFRTEFDVAVDELSLNPGKQRFEKMISGMYLGEIVRNILIDFTKRGLLFRGRISERLKTRGIFETKFLSQIESDCLALLQVRAILQHLGLESTCDDSIIVKEVCTVVARRAAQLCGAGMAAVVDRIRENRGLDALKVTVGVDGTLYKLHPHFAKVMHETVKDLAPKCDVSFLQSEDGSGKGAALITAVACRIREAGQR
With B1, the binding entry is “binds”.
